Results are given in words; binding and its absence hold for the method and conditions named. In cells and extracts the contact can be indirect. A result given as binding can be weak or reduced; the word gives no strength. Tags and fused reporters may be left off the sequences shown.

The test deals with T1, Cullin-3 (CUL3), V5-tagged (Drosophila) (UniProt Q9V475).
T1 sequence: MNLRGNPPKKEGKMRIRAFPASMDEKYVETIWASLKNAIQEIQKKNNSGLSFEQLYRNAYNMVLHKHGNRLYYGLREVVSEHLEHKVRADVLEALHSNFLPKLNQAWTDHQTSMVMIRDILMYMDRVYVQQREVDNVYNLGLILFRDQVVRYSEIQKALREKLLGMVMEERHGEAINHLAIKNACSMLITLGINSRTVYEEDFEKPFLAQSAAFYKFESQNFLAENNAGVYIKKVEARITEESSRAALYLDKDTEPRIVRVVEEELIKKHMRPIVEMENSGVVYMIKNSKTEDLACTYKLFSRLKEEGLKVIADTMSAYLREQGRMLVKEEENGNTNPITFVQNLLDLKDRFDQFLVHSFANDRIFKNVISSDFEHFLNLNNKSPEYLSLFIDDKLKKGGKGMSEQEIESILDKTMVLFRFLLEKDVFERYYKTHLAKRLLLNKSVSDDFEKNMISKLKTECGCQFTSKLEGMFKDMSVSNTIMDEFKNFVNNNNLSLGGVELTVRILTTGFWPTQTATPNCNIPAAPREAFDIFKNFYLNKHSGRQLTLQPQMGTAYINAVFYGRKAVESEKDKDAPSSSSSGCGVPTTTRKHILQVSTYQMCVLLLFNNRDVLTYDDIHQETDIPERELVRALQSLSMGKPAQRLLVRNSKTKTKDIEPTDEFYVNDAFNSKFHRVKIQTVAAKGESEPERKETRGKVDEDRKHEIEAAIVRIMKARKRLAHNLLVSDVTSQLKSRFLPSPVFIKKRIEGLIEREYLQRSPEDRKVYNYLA
Kind of test: co-IP; α-V5 agarose immunoprecipitation from supernatant of transfected S2 cells (Cul3-V5, inc-HA and/or inc-V5) lysed 24 h after transfection in T150 buffer (25 mM Tris-Cl pH 7.5, 150 mM NaCl, 10% glycerol, 1 mM EDTA, 1 mM DTT, 0.5% NP-40, 1 mM PMSF); 1.5 h at 4°C; blotted with α-HA to detect INC-HA.

Regarding “Insomniac (INC), epitope-tagged (Drosophila)”, the binding result is “binds”.

The record behind these values is publication PMC3464197.
